Consider 37 targets from the supplement of paper PMC12819154, “High-throughput peptide-centric local stability assay extends protein–ligand identification to membrane proteins, tissues and bacteria” (Nature Structural & Molecular Biology, 2025).

The chains behind the UniProt entries cited, without tags or fusion partners. Where a name states a change or a piece, a line headed by the entry shows the natural chain unless it says otherwise.
UniProt Q8TF05: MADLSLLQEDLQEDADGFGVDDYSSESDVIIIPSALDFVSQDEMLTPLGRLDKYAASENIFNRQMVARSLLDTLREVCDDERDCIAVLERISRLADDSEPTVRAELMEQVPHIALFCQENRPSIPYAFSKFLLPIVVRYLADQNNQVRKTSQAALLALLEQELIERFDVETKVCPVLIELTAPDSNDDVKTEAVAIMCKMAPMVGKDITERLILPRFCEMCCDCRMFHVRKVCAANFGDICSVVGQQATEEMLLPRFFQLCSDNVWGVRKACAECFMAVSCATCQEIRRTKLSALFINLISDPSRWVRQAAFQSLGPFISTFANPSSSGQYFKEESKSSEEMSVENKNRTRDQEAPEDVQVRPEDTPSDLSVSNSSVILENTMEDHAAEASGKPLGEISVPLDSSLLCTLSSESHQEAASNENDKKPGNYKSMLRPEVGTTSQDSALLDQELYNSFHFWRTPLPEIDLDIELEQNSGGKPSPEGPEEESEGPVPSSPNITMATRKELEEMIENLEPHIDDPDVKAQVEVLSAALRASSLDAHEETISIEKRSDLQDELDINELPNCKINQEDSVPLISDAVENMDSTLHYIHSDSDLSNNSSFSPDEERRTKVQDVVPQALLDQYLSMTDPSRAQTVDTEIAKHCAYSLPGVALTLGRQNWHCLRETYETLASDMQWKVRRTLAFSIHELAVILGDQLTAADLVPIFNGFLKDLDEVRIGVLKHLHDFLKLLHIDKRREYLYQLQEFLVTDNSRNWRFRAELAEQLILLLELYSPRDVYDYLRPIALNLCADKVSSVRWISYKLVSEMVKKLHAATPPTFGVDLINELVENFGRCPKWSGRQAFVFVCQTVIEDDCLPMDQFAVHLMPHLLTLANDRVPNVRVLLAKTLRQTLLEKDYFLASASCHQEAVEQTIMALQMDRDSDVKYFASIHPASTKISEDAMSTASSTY
UniProt Q8WUW1: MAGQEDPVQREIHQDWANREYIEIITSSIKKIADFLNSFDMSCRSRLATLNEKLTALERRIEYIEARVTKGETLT
UniProt Q8WYP5: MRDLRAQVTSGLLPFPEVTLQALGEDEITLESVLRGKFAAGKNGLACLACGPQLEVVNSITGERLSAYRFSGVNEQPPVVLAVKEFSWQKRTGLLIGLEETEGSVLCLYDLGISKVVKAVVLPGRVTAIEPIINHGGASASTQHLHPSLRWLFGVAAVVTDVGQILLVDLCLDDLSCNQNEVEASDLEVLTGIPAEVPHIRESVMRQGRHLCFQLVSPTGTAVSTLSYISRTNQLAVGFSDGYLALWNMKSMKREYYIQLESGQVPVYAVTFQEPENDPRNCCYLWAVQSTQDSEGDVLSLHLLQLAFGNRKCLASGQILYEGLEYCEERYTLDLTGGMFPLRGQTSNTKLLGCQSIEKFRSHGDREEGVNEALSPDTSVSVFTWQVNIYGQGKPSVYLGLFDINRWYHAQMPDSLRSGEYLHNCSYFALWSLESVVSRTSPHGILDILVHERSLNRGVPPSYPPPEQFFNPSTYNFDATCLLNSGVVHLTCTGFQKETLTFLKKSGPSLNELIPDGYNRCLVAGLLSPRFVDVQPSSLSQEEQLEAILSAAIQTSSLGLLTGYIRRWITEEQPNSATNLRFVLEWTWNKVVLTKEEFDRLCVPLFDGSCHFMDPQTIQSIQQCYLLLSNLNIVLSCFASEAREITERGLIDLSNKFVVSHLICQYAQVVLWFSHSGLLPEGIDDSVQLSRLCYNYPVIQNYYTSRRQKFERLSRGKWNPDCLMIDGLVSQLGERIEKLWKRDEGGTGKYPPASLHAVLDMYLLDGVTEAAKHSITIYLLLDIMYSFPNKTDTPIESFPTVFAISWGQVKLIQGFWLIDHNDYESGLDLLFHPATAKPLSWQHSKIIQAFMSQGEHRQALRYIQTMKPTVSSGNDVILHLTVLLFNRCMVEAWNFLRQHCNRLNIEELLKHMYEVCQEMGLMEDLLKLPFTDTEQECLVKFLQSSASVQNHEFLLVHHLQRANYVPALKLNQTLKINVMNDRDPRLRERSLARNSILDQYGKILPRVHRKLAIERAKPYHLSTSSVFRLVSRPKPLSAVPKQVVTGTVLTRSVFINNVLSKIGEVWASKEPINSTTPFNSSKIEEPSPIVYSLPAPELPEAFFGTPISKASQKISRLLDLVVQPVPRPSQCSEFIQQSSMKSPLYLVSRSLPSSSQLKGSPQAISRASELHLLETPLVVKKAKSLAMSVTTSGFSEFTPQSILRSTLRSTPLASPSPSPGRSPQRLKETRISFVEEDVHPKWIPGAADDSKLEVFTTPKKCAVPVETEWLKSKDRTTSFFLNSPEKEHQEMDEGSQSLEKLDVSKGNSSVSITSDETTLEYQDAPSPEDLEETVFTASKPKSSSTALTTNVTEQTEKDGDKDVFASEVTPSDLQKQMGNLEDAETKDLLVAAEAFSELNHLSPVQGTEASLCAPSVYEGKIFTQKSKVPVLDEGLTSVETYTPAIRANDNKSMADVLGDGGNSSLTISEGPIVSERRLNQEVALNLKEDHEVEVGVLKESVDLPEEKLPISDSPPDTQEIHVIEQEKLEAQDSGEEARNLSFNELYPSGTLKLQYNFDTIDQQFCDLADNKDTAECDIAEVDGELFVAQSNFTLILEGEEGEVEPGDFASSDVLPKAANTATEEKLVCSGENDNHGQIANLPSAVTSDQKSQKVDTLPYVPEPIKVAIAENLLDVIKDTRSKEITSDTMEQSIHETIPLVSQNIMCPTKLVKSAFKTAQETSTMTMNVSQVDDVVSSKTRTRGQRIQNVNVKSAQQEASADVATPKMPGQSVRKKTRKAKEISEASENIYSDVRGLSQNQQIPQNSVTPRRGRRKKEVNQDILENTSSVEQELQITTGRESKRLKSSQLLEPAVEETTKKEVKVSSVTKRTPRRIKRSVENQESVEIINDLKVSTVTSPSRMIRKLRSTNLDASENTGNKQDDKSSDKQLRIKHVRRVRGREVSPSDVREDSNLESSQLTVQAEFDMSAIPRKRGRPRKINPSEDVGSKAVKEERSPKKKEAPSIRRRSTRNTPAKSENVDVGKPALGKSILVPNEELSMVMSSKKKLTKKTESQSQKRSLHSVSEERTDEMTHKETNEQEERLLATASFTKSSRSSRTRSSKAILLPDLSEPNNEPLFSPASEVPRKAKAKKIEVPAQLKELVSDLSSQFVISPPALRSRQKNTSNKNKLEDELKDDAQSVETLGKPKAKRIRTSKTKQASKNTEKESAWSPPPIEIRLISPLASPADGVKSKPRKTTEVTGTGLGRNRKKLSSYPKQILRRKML
UniProt Q8WW01: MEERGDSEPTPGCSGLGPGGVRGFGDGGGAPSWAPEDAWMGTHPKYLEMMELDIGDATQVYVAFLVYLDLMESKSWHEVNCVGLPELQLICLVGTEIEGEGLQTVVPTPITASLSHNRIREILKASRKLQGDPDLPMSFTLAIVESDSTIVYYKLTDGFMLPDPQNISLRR
UniProt Q8TE49: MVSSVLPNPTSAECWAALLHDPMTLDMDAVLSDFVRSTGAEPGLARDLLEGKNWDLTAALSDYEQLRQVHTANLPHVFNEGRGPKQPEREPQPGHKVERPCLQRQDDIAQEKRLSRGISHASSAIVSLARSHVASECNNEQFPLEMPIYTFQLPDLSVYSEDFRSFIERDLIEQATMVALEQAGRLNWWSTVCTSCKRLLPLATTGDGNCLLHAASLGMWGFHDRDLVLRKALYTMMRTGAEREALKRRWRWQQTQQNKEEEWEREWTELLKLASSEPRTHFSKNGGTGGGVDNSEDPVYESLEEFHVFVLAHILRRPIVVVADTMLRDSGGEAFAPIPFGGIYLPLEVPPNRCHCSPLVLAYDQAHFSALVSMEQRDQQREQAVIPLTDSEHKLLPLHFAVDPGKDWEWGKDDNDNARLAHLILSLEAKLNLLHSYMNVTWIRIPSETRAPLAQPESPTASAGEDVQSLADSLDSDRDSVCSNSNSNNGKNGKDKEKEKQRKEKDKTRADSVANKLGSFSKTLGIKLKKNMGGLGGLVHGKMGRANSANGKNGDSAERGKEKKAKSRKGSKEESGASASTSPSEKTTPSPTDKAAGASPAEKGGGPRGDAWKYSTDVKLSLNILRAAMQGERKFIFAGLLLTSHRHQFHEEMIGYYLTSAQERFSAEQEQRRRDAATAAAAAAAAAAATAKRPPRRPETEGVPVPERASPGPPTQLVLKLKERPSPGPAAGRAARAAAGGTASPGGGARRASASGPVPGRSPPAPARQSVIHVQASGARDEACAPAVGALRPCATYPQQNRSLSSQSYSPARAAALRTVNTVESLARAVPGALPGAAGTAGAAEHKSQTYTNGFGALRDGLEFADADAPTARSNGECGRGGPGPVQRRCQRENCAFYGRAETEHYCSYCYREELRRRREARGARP
UniProt Q8TD16, whole entry: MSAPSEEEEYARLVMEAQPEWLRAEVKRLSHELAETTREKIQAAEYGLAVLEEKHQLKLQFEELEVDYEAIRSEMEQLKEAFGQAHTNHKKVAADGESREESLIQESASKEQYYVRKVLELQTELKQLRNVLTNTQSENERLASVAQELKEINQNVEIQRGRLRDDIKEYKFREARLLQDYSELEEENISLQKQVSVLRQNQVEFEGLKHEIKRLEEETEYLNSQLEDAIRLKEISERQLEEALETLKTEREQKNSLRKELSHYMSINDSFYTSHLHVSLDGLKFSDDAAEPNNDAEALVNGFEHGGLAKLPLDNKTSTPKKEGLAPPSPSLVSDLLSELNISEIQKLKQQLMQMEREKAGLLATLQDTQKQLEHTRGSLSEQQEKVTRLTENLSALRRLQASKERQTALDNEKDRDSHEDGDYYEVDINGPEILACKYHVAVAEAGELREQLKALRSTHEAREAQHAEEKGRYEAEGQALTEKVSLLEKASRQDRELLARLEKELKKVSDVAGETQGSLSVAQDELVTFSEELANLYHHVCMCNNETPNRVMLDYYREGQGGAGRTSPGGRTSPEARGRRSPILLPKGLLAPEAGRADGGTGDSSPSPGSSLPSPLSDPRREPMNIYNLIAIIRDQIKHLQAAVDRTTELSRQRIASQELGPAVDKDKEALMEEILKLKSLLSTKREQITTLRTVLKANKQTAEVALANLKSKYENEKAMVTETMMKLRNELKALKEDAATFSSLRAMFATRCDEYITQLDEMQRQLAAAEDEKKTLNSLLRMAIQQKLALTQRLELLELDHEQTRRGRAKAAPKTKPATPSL
UniProt Q8WWY3: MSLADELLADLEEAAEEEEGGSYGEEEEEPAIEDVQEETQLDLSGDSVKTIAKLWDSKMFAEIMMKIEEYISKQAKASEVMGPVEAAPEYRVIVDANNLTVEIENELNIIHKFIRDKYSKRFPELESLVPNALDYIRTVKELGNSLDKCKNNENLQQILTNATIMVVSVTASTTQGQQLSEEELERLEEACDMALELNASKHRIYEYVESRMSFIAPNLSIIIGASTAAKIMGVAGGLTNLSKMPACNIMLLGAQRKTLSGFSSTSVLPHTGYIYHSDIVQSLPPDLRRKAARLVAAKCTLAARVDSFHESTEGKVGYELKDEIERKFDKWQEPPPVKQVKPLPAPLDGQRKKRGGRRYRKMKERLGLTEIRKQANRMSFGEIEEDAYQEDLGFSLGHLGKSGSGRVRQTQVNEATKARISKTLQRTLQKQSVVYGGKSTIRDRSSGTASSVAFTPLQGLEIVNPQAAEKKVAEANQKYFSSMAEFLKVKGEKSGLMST
UniProt Q92796: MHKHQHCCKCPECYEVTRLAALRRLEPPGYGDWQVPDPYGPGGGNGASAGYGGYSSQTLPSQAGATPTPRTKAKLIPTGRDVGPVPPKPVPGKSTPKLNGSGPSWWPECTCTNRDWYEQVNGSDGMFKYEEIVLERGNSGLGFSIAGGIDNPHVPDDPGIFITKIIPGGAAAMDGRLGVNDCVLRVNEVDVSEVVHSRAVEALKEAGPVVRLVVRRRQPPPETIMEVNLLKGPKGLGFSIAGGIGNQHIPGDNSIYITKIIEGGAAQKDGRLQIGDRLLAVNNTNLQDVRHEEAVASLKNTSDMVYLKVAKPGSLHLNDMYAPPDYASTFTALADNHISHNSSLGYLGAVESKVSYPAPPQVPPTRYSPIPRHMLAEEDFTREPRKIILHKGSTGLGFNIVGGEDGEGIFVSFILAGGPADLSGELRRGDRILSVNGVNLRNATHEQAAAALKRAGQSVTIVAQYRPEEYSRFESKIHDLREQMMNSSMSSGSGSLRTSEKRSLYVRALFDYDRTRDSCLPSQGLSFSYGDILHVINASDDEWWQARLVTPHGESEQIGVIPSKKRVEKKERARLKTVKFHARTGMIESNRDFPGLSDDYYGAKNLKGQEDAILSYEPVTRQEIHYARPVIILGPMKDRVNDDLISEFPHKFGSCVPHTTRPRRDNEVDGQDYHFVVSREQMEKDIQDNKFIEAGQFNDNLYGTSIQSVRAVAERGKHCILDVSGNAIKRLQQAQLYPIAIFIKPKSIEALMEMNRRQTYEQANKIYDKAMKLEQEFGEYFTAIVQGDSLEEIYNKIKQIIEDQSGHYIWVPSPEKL

Some of the results follow. Most values lie at the level of the controls, where differences are scatter.

Compound in this assay: CN[C@@H]1C[C@H]2O[C@@](C)([C@@H]1OC)n1c3ccccc3c3c4c(c5c6ccccc6n2c5c31)C(=O)NC4 [staurosporine]
The assay can be described thus: log2 fold change of tryptic peptide abundance, ligand vs vehicle (limited proteolysis) (log2 ratio); higher = more trypsin-susceptible (destabilized). As to conditions: ligand concentration: 20 uM; sample: K562 cleared lysate; digestion: 4 min, 22 C (HT-PELSA RT4min, Orbitrap Astral).
As for “PPP4R1 (peptide sequence: DCIAVLER, peptide start residue: 83) (UniProt Q8TF05)”, the log2 fold change came out at 0.28.
For “THAP4 (peptide sequence: GAAGWSPSSSGNPMAKPESR, peptide start residue: 123) (UniProt Q8WY91)” the value was 0.33; for “ZNF384 (peptide sequence: AFTQLSNLQSHR, peptide start residue: 383) (UniProt Q8TF68)”, -1.09; for “UniProt Q8TDB8 (peptide sequence: TFEDITR, peptide start residue: 457)”, 0.0163.
As to “ZNF526 (peptide sequence: AHTANPLHR, peptide start residue: 381) (UniProt Q8TF50)”, the log2 fold change is -0.495.
In the case of “TMEM263 (peptide sequence: VTGGIFSVTK, peptide start residue: 38) (UniProt Q8WUH6)” it was 0.368; in that of “SLC20A1 (peptide sequence: VGDCMGDSGDKPLRR, peptide start residue: 400) (UniProt Q8WUM9)”, -0.789.
For the target “DYNC2LI1 (peptide sequence: PSETLWEIAK, peptide start residue: 2) (UniProt Q8TCX1)”, the log2 fold change is -0.207.
For “UniProt Q8WUW1 (peptide sequence: EYIEIITSSIKK, peptide start residue: 20)” the value was 0.352; for “AHCTF1 (peptide sequence: AKPYHLSTSSVFR, peptide start residue: 1016) (UniProt Q8WYP5)”, 0.428.
In the case of “NRGN (peptide sequence: KGPGPGGPGGAGVAR, peptide start residue: 54) (UniProt Q92686)” it was 0.172; in that of “RUFY2 (peptide sequence: LIEELAIAK, peptide start residue: 237) (UniProt Q8WXA3)”, -0.205.
Turning to “TSEN15 (peptide sequence: LTDGFMLPDPQNISLR, peptide start residue: 155) (UniProt Q8WW01)”, the log2 fold change amounted to 0.115.
Consider “UBE2Q2 (peptide sequence: NGWYTPPKEDG, peptide start residue: 412) (UniProt Q8WVN8)”, for which the log2 fold change was found to be 0.0301.
In the case of “UniProt Q8TE49 (peptide sequence: LLPLHFAVDPGK, peptide start residue: 386)” it was 0.31; in that of “BAP1 (peptide sequence: SPMQEEEDLAAGVGR, peptide start residue: 369) (UniProt Q92560)”, 0.249; in that of “UniProt Q8TD23 (peptide sequence: NVILENYR, peptide start residue: 31)”, -0.138.
“UniProt Q8TDH9 (peptide sequence: NMIHETNEHTLPK, peptide start residue: 81)”: the log2 fold change is -1.5.
For “UniProt Q8TF32 (peptide sequence: DSFQQVILR, peptide start residue: 124)” the value was -0.125; for “BICD2 (peptide sequence: REPMNIYNLIAIIRDQIK, peptide start residue: 622) (UniProt Q8TD16)”, 0.37; for “PRPF31 (peptide sequence: YFSSMAEFLK, peptide start residue: 479) (UniProt Q8WWY3)”, -0.0965.
For “NECTIN2 (peptide sequence: YHELPTLEER, peptide start residue: 454) (UniProt Q92692)” the value was 0.024; for “TOPBP1 (peptide sequence: ELGTGLSQK, peptide start residue: 1498) (UniProt Q92547)”, -0.245.
In the case of “RAPGEF6 (peptide sequence: AHLHQPHR, peptide start residue: 1170) (UniProt Q8TEU7)” it was 0.203; in that of “TBC1D22A (peptide sequence: NDEVHQDTYR, peptide start residue: 269) (UniProt Q8WUA7)”, 0.178; in that of “NOC3L (peptide sequence: LISEMCCEAVKK, peptide start residue: 376) (UniProt Q8WTT2)”, -0.246.
For “UniProt Q8WZA9 (peptide sequence: MENPKGESLK, peptide start residue: 346)”, the log2 fold change was found to be 0.221.
For “DLG3 (peptide sequence: TGMIESNR, peptide start residue: 584) (UniProt Q92796)” the value was 0.191.
For “DTX3L (peptide sequence: GGGMSSLAGK, peptide start residue: 509) (UniProt Q8TDB6)” the value was 0.384; for “UniProt Q92674 (peptide sequence: FFAPALISVSLPVRK, peptide start residue: 244)”, -0.458.
In the case of “NEK7 (peptide sequence: RMHACTASS, peptide start residue: 294) (UniProt Q8TDX7)” it was 0.462.
Take “UniProt Q8WV37 (peptide sequence: NSHLAEHCR, peptide start residue: 243)”: the log2 fold change worked out at 0.575.
For “ZNF507 (peptide sequence: LPSAEETLSQK, peptide start residue: 402) (UniProt Q8TCN5)” the value was -0.409; for “ANKS1A (peptide sequence: IMSSIGEGIDFSQER, peptide start residue: 674) (UniProt Q92625)”, -0.728.
For “DEPDC1B (peptide sequence: SYEHCFTAAEAVDWLHELLR, peptide start residue: 39) (UniProt Q8WUY9)” the value was 0.342; for “UniProt Q8WWV6 (peptide sequence: PAAPGTGSWAEGSVKAPAPIPESPPSK, peptide start residue: 244)”, 0.128; for “UniProt Q8WVV9 (peptide sequence: ETYEEDREYESQAKR, peptide start residue: 10)”, -0.362.
